{
  "source": "patent US20180015075A1",
  "about": "“METHODS AND COMPOSITIONS FOR TREATMENT OF VENOUS MALFORMATION” (Children's Hospital Medical Center, priority 2016, published 2018)",
  "key": {"[1]": {"system": "HUVEC-TIE2-L914F-GFP vascular channels", "test": "Fibrin gel bead assay", "type": "cell-based, human", "conditions": "100 nM Ponatinib, 10 nM rapamycin or combination from day 1", "method": "Assay was performed as described(34). Briefly, coated the beads with HUVEC-GFP or HUVEC-TIE2-L914F-GFP cells (2500 beads with 1×10^6 cells) and mixed coated beads in fibrinogen solution at a concentration of ˜500 beads/ml. Then 0.625 Units/mL of thrombin and 0.5 ml beads/fibrinogen suspension were added per well in 24-well plate successively. After dotting in the 37° C.-incubator, added 1 ml EGM-2 medium and 20,000 fibroblasts per well on the top. Then beads treated by adding DMSO, Ponatinib, rapamycin or combination in the medium"}, "[2]": {"system": "Pik3ca^H1047R venous lesions", "conditions": "4 mg/kg rapamycin after 4 weeks of treatment; cited from earlier work"}},
  "note": "At least one structure is not confirmed: it was looked up by name or label, or the drawing left a doubt.",
  "data": [
    {"smiles": "CO[C@H]1C[C@@H]2CC[C@@H](C)[C@@](O)(O2)C(=O)C(=O)N2CCCC[C@H]2C(=O)O[C@H]([C@H](C)C[C@@H]2CC[C@@H](O)[C@H](OC)C2)CC(=O)[C@H](C)/C=C(\\C)[C@@H](O)[C@@H](OC)C(=O)[C@H](C)C[C@H](C)/C=C/C=C/C=C/1C", "note": "[Sirolimus, Rapamycin]", "values": [
      {"measurement": "tube formation (tube area at day 11)", "setting": "[1]", "result": "almost completely inhibited tube formation"},
      {"measurement": "decrease in lesion size", "setting": "[2]", "result": 25, "unit": "%"}
    ]}
  ]
}
